# Experimental data as given in patent US20120045505A1, “FIXED DOSE DRUG COMBINATION FORMULATIONS” (Dr. Reddy's Laboratories, Inc., priority 2004, published 2012).
# Assay: Storage stability of capsules in closed HDPE bottles at 40° C. and 75% relative humidity for 6 months: drug content and drug-related impurities
# Assay type: physicochemical
# Conditions: Example 3 capsule
# Description: Capsules prepared above are stored in closed high-density polyethylene (HDPE) bottles at 40° C. and 75% relative humidity for 6 months, and are analyzed for drug content and the levels of drug-related impurity formation.
# Capsules prepared above are stored in closed HDPE bottles at 40° C. and 75% relative humidity for 6 months, and are analyzed for drug content and the levels of drug-related impurities.
compound,measurement,setting,value
CC(C)NCC(O)COc1ccc(CC(N)=O)cc1 (stereo not drawn) [Atenolol],Impurity: Blocker acid,"6 Months, 40° C./75% RH",0.04 % of label content
same,Impurity: DIOL,"6 Months, 40° C./75% RH",0.108 % of label content
same,Impurity: Diacetyl,"6 Months, 40° C./75% RH",0.007 % of label content
same,Impurity: N-Monoacetyl,"6 Months, 40° C./75% RH",0.002 % of label content
same,Impurity: PHPA,"6 Months, 40° C./75% RH",0.047 % of label content
same,Impurity: Tertiary amine,"6 Months, 40° C./75% RH",0.029 % of label content
same,Impurity: Blocker acid,Initial,0.049 % of label content
same,Impurity: DIOL,Initial,0.108 % of label content
same,Impurity: Diacetyl,Initial,0.004 % of label content
same,Impurity: N-Monoacetyl,Initial,0.001 % of label content
same,Impurity: PHPA,Initial,0.022 % of label content
same,Impurity: Tertiary amine,Initial,0.028 % of label content
